Assay results from publication PMC4792583.
No constants are given. Whether binding was seen depends on the method and setting. In cells and extracts the contact can be indirect. Some binding calls cover weakened binding; strength is not graded here.

By UniProt entry, the sequences of proteins in these tests, tags left out.
UniProt P17844: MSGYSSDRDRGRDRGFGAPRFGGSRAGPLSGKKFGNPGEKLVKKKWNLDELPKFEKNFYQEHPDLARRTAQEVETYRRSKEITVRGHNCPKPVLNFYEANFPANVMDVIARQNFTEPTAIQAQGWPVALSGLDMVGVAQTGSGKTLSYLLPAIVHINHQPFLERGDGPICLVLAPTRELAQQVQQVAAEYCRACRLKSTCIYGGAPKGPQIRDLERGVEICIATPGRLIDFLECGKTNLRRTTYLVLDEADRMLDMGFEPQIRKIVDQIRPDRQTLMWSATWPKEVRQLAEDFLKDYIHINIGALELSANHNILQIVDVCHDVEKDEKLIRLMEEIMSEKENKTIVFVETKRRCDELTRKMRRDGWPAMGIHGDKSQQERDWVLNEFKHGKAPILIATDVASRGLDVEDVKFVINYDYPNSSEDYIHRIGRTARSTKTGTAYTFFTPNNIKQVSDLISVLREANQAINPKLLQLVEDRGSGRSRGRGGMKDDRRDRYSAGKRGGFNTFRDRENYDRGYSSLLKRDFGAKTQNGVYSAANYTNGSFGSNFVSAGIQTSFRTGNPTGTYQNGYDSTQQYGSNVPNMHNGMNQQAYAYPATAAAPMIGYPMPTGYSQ

Molecular target: p68 (human (endogenous in HEC-1B and HEC-50)) (UniProt P17844)
Experiment: co-IP; immunoprecipitation from p53-null HEC-50 cells after transfection with different p53 expression plasmids (WTp53 or mutp53); which protein was precipitated is not told

B1: Drosha (enzyme, UniProt Q9NRR4 1-1374)
chain: MMQGNTCHRMSFHPGRGCPRGRGGHGARPSAPSFRPQNLRLLHPQQPPVQYQYEPPSAPSTTFSNSPAPNFLPPRPDFVPFPPPMPPSAQGPLPPCPIRPPFPNHQMRHPFPVPPCFPPMPPPMPCPNNPPVPGAPPGQGTFPFMMPPPSMPHPPPPPVMPQQVNYQYPPGYSHHNFPPPSFNSFQNNPSSFLPSANNSSSPHFRHLPPYPLPKAPSERRSPERLKHYDDHRHRDHSHGRGERHRSLDRRERGRSPDRRRQDSRYRSDYDRGRTPSRHRSYERSRERERERHRHRDNRRSPSLERSYKKEYKRSGRSYGLSVVPEPAGCTPELPGEIIKNTDSWAPPLEIVNHRSPSREKKRARWEEEKDRWSDNQSSGKDKNYTSIKEKEPEETMPDKNEEEEEELLKPVWIRCTHSENYYSSDPMDQVGDSTVVGTSRLRDLYDKFEEELGSRQEKAKAARPPWEPPKTKLDEDLESSSESECESDEDSTCSSSSDSEVFDVIAEIKRKKAHPDRLHDELWYNDPGQMNDGPLCKCSAKARRTGIRHSIYPGEEAIKPCRPMTNNAGRLFHYRITVSPPTNFLTDRPTVIEYDDHEYIFEGFSMFAHAPLTNIPLCKVIRFNIDYTIHFIEEMMPENFCVKGLELFSLFLFRDILELYDWNLKGPLFEDSPPCCPRFHFMPRFVRFLPDGGKEVLSMHQILLYLLRCSKALVPEEEIANMLQWEELEWQKYAEECKGMIVTNPGTKPSSVRIDQLDREQFNPDVITFPIIVHFGIRPAQLSYAGDPQYQKLWKSYVKLRHLLANSPKVKQTDKQKLAQREEALQKIRQKNTMRREVTVELSSQGFWKTGIRSDVCQHAMMLPVLTHHIRYHQCLMHLDKLIGYTFQDRCLLQLAMTHPSHHLNFGMNPDHARNSLSNCGIRQPKYGDRKVHHMHMRKKGINTLINIMSRLGQDDPTPSRINHNERLEFLGDAVVEFLTSVHLYYLFPSLEEGGLATYRTAIVQNQHLAMLAKKLELDRFMLYAHGPDLCRESDLRHAMANCFEALIGAVYLEGSLEEAKQLFGRLLFNDPDLREVWLNYPLHPLQLQEPNTDRQLIETSPVLQKLTEFEEAIGVIFTHVRLLARAFTLRTVGFNHLTLGHNQRMEFLGDSIMQLVATEYLFIHFPDHHEGHLTLLRSSLVNNRTQAKVAEELGMQEYAITNDKTKRPVALRTKTLADLLESFIAALYIDKDLEYVHTFMNVCFFPRLKEFILNQDWNDPKSQLQQCCLTLRTEGKEPDIPLYKTLQTVGPSHARTYTVAVYFKGERIGCGKGPSIQQAEMGAAMDALEKYNFPQMAHQKRFIERKYRQELKEMRWEREHQEREPDETEDIKK
Q: For B1, which binding is on record?
A: Its binding is “binds”.
